# Measured values: US20110178107A1, “HCV PROTEASE INHIBITORS” (TaiGen Biotechnology Co., Ltd., priority 2010, published 2011)
# Some entries share one result that the patent states for a list of compounds.
# Biological target: T1, NS3/4A protease (Hepatitis C virus genotype 1a, UniProt P27958)
# T1 construct: N-terminal His6-tagged-NS4A(21-32)-GSGS-NS3(3-181); made in house; host or cells: E. coli BL21(DE3) pLysS
# Test: Inhibition of NS3/4A protease activity (HPLC microbore assay)
# Type: biochemical, HCV
# Details: 2 nM NS3/4A protease, 30 minutes at 30° C; call rule not given here.
row,SMILES,inhibiting NS3/4A activity
1,C=C[C@@H]1C[C@]1(NC(=O)[C@@H]1C[C@@H](Oc2nc(-c3ccc(C(F)(F)F)cc3)nc3c2sc2ccccc23)CN1C(=O)[C@@H](Nc1nc(C)cs1)C(C)(C)C)C(=O)NS(=O)(=O)C1CC1 [Compound 109],active
2,C=C[C@@H]1C[C@]1(NC(=O)[C@@H]1C[C@@H](Oc2nc(-c3ccc(OC(C)C)cc3)nc3c2sc2ccccc23)CN1C(=O)[C@@H](Nc1nc(C(C)C)cs1)C(C)(C)C)C(=O)NS(=O)(=O)C1CC1 [Compound 140],active
3,C=C[C@@H]1C[C@]1(NC(=O)[C@@H]1C[C@@H](Oc2nc(-c3ccc(OC(C)C)cc3)nc3c2sc2ccc(F)cc23)CN1C(=O)[C@@H](Nc1ccc(C#N)cc1)C(C)(C)C)C(=O)NS(=O)(=O)C1CC1 [Compound 159],active
4,N#Cc1ccc(N[C@H]2CCCCC/C=C\[C@@H]3C[C@@]3(C(=O)NS(=O)(=O)C3CC3)NC(=O)[C@@H]3C[C@@H](Oc4nc(-c5ccc(C(F)(F)F)cc5)nc5c4oc4ccccc45)CN3C2=O)cc1 [Compound 202],active
5,COc1cccc(-c2cc(O[C@@H]3C[C@H]4C(=O)N[C@]5(C(=O)NS(=O)(=O)C6CC6)C[C@H]5/C=C\CCCCC[C@H](NC(=O)OC5CCCC5)C(=O)N4C3)n3nc4ccccc4c3n2)c1F [Compound 246],active
6,C=C[C@@H]1C[C@]1(NC(=O)[C@@H]1C[C@@H](Oc2nc(-c3ccc(OC(C)C)cc3)nc3c2sc2ccccc23)CN1C(=O)[C@@H](Nc1ccccc1)C(C)(C)C)C(=O)NS(=O)(=O)C1CC1 [Compound 126],active
7,O=C1N[C@]2(C(=O)NS(=O)(=O)C3CC3)C[C@H]2/C=C\CCCCCCC(=O)N2C[C@H](Oc3cc(-c4ccco4)nc4c5ccccc5nn34)C[C@@H]12 [Compound 301],active
8,C=C[C@@H]1C[C@]1(NC(=O)[C@@H]1C[C@@H](Oc2nc(-c3ccc(C(F)(F)F)cc3)nc3c2oc2cccnc23)CN1C(=O)[C@@H](Nc1nc(C(=O)OCC)cs1)C(C)(C)C)C(=O)NS(=O)(=O)C1CC1 [Compound 81],active
9,C=C[C@@H]1C[C@]1(NC(=O)[C@@H]1C[C@@H](Oc2nc(-c3ccc(C(F)(F)F)cc3)nc3c2sc2ccccc23)CN1C(=O)[C@@H](Nc1nc(C)c(C(=O)OC)s1)C(C)(C)C)C(=O)NS(=O)(=O)C1CC1 [Compound 111],active
10,C=C[C@@H]1C[C@]1(NC(=O)[C@@H]1C[C@@H](Oc2nc(-c3ccc(OC(C)C)cc3)nc3c2oc2ccccc23)CN1C(=O)[C@@H](Nc1nc(C(=O)NCC)cs1)C(C)(C)C)C(=O)NS(=O)(=O)C1CC1 [Compound 106],active
11,O=C1N[C@]2(C(=O)NS(=O)(=O)C3CC3)C[C@H]2/C=C\CCCCC[C@H](Nc2ccccc2)C(=O)N2C[C@H](Oc3cc(-c4ccccc4)nc4c5ccccc5nn34)C[C@@H]12 [Compound 303],active
12,"C=C[C@@H]1C[C@]1(NC(=O)[C@@H]1C[C@@H](Oc2nc(-c3ccc(OC(C)C)cc3)nc3c2oc2cccnc23)CN1C(=O)[C@@H](Nc1nc(C(=O)OC)cs1)C(C)(C)C)C(=O)NS(=O)(=O)C1CC1 [Compound 167, methyl 2-((2S)-1-((2S,4R)-2-((2S)-1-(cyclopropylsulfonylcarbamoyl)-2-vinylcyclopropylcarbamoyl)-4-(2-(4-isopropoxyphenyl)furo[3,2-b]pyridine[3,2-d]pyrimidin-4-yloxy)-pyrrolidin-1-yl)-3,3-dimethyl-1-oxobutan-2-ylamino)thiazole-4-carboxylate]",active
13,CCN(CC)c1ccc(-c2cc(O[C@@H]3C[C@H]4C(=O)N[C@]5(C(=O)NS(=O)(=O)C6CC6)C[C@H]5/C=C\CCCCC[C@H](NC(=O)OC5CCCC5)C(=O)N4C3)n3nc4ccccc4c3n2)cc1 [Compound 245],active
14,O=C(N[C@H]1CCCCC/C=C\[C@@H]2C[C@@]2(C(=O)NS(=O)(=O)C2CC2)NC(=O)[C@@H]2C[C@@H](Oc3cc(-c4cccc([N+](=O)[O-])c4)nc4c5ccccc5nn34)CN2C1=O)OC1CCCC1 [Compound 240],active
15,C=C[C@@H]1C[C@]1(NC(=O)[C@@H]1C[C@@H](Oc2nc(-c3ccc(C(F)(F)F)cc3)nc3c2oc2ccccc23)CN1C(=O)[C@@H](Nc1ccc(C(=O)NC)cc1)C(C)(C)C)C(=O)NS(=O)(=O)C1CC1 [Compound 86],active
16,CC(C)Oc1ccc(-c2nc(O[C@@H]3C[C@H]4C(=O)N[C@]5(C(=O)NS(=O)(=O)C6CC6)C[C@H]5/C=C\CCCCC[C@H](Nc5ccc(F)cc5)C(=O)N4C3)c3sc4ccccc4c3n2)cc1 [Compound 215],active
17,C=C[C@@H]1C[C@]1(NC(=O)[C@@H]1C[C@@H](Oc2nc(-c3ccc(C(F)(F)F)cc3)nc3c2oc2ccccc23)CN1C(=O)[C@@H](Nc1ccccc1C#N)C(C)(C)C)C(=O)NS(=O)(=O)C1CC1 [Compound 59],active

row,SMILES,inhibiting NS3/4A activity
1,C=C[C@@H]1C[C@]1(NC(=O)[C@@H]1C[C@@H](Oc2nc(-c3ccc(C(F)(F)F)cc3)nc3c2oc2ccccc23)CN1C(=O)[C@@H](Nc1nc(CC)cs1)C(C)C)C(=O)NS(=O)(=O)C1CC1 [Compound 4],active
2,C=C[C@@H]1C[C@]1(NC(=O)[C@@H]1C[C@@H](Oc2nc(-c3ccc(C(F)(F)F)cc3)nc3c2oc2ccccc23)CN1C(=O)[C@@H](Nc1cc(F)cc(F)c1)C1CCCCC1)C(=O)NS(=O)(=O)C1CC1 [Compound 27],active
3,C=C[C@@H]1C[C@]1(NC(=O)[C@@H]1C[C@@H](Oc2nc(-c3ccc(C(F)(F)F)cc3)nc3c2oc2ccccc23)CN1C(=O)[C@@H](Nc1nc2c(s1)CCCC2)C(C)(C)C)C(=O)NS(=O)(=O)C1CC1 [Compound 48],active
4,C=C[C@@H]1C[C@]1(NC(=O)[C@@H]1C[C@@H](Oc2nc(-c3ccc(C(F)(F)F)cc3)nc3c2sc2ccccc23)CN1C(=O)[C@@H](Nc1ccc(C(F)(F)F)cc1)C(C)(C)C)C(=O)NS(=O)(=O)C1CC1 [Compound 117],active
5,C=C[C@@H]1C[C@]1(NC(=O)[C@@H]1C[C@@H](Oc2nc(-c3ccc(OC(C)C)cc3)nc3c2oc2ccccc23)CN1C(=O)[C@@H](Nc1cccc(F)c1)C(C)(C)C)C(=O)NS(=O)(=O)C1CC1 [Compound 107],active
6,CC(C)c1csc(-c2cc(O[C@@H]3C[C@H]4C(=O)N[C@]5(C(=O)NS(=O)(=O)C6CC6)C[C@H]5/C=C\CCCCC[C@H](NC(=O)OC5CCCC5)C(=O)N4C3)n3nc4ccccc4c3n2)n1 [Compound 280],active
7,CNC(=O)c1cccc(N[C@H]2CCCCC/C=C\[C@@H]3C[C@@]3(C(=O)NS(=O)(=O)C3CC3)NC(=O)[C@@H]3C[C@@H](Oc4nc(-c5ccc(C(F)(F)F)cc5)nc5c4oc4ccccc45)CN3C2=O)c1 [Compound 203],active
8,"O=C(NC1CCCCCC=CC2CC2(C(=O)NS(=O)(=O)C2CC2)NC(=O)C2CC(Oc3cc(-c4ccccc4)nc4c5ccccc5nn34)CN2C1=O)OC1CCCC1 (stereo not shown) [Compound 228, [4-Cyclopropanesulfonylaminocarbonyl-2,15-dioxo-18-(2-phenyl-pyrimido[1,2-b]indazol-4-yloxy)-3,16-diaza-tricyclo[14.3.0.04,6]nonadec-7-en-14-yl]-carbamic acid cyclopentyl ester]",active
9,C=C[C@@H]1C[C@]1(NC(=O)[C@@H]1C[C@@H](Oc2nc(-c3ccc(OC(C)C)cc3)nc3c2oc2ccc(F)cc23)CN1C(=O)[C@@H](Nc1ccc(C(=O)NC)cc1)C(C)(C)C)C(=O)NS(=O)(=O)C1CC1 [Compound 169],active
10,"C=C[C@@H]1C[C@]1(NC(=O)[C@@H]1C[C@@H](Oc2nc(-c3ccc(OC(C)C)cc3)nc3c2oc2ccccc23)CN1C(=O)[C@@H](Nc1ccc(C#N)cc1)C(C)(C)C)C(=O)NS(=O)(=O)C1CC1 [Compound 141, (2S,4R)-1-((S)-2-(4-cyanophenylamino)-3,3-dimethylbutanoyl)-N-((1R,2S)-1-(cyclopropylsulfonylcarbamoyl)-2-vinylcyclopropyl)-4-(2-(4-isopropoxyphenyl)benzofuro[3,2-d]pyrimidin-4-yloxy)pyrrolidine-2-carboxamide]",active
11,CC[C@@H]1C[C@]1(NC(=O)[C@@H]1C[C@@H](Oc2nc(-c3ccc(C(F)(F)F)cc3)nc3c2oc2ccccc23)CN1C(=O)[C@@H](NC1=NC(=O)CS1)C(C)(C)C)C(=O)NS(=O)(=O)C1CC1 [Compound 28],active
12,C=C[C@@H]1C[C@]1(NC(=O)[C@@H]1C[C@@H](Oc2nc(-c3ccc(C(F)(F)F)cc3)nc3c2oc2ccccc23)CN1C(=O)[C@@H](Nc1cc(F)cc(F)c1)C(C)(C)C)C(=O)NS(=O)(=O)C1CC1 [Compound 23],active
13,COc1ccc2c(c1)nn1c(O[C@@H]3C[C@H]4C(=O)N[C@]5(C(=O)NS(=O)(=O)C6CC6)C[C@H]5/C=C\CCCCC[C@H](NC(=O)OC5CCCC5)C(=O)N4C3)cc(-c3ccccc3)nc21 [Compound 253],active
14,O=C(N[C@H]1CCCCC/C=C\[C@@H]2C[C@@]2(C(=O)NS(=O)(=O)C2CC2)NC(=O)[C@@H]2C[C@@H](Oc3cc(-c4ccc([N+](=O)[O-])cc4)nc4c5ccccc5nn34)CN2C1=O)OC1CCCC1 [Compound 239],active
15,CC(C)Oc1ccc(-c2nc(O[C@@H]3C[C@H]4C(=O)N[C@]5(C(=O)NS(=O)(=O)C6CC6)C[C@H]5/C=C\CCCCC[C@H](Nc5cccc(C(F)(F)F)c5)C(=O)N4C3)c3oc4ccccc4c3n2)cc1 [Compound 212],active
16,CC(C)(C)c1csc(N[C@H]2CCCCC/C=C\[C@@H]3C[C@@]3(C(=O)NS(=O)(=O)C3CC3)NC(=O)[C@@H]3C[C@@H](Oc4nc(-c5ccc(C(F)(F)F)cc5)nc5c4oc4ccccc45)CN3C2=O)n1 [Compound 187],active
17,CC(C)Oc1ccc(-c2nc(O[C@@H]3C[C@H]4C(=O)N[C@]5(C(=O)NS(=O)(=O)C6CC6)C[C@H]5/C=C\CCCCC[C@H](Nc5ccc(C#N)cc5)C(=O)N4C3)c3oc4ccc(F)cc4c3n2)cc1 [Compound 223],active
